Results are given in words; binding and its absence hold for the method and conditions named. Some entries that bind do so weakly or less than the wild type.
Tests used:
[1] = target: VDAC1 on the surface of human umbilical vein endothelial cells (HUVEC) (human) (UniProt P21796); assay: competition with 125I-K5 (100 nM) on HUVEC
[2] = target: VDAC1 on the surface of human umbilical vein endothelial cells (HUVEC) (human) (UniProt P21796); assay: FACS on HUVEC; blocking of anti-SK-peptide IgG

The chains behind the UniProt entries cited, without tags or fusion partners. Where a name states a change or a piece, a line headed by the entry shows the natural chain unless it says otherwise. Residues count along the entry.
UniProt P21796: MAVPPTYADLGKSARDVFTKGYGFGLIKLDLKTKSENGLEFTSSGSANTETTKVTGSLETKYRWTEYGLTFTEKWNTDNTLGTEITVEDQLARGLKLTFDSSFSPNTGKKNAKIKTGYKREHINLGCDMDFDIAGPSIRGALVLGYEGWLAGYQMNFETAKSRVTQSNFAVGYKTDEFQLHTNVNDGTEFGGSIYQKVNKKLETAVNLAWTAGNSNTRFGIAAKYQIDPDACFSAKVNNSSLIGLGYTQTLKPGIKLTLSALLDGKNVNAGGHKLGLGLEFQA
UniProt P00747, residues 462-810: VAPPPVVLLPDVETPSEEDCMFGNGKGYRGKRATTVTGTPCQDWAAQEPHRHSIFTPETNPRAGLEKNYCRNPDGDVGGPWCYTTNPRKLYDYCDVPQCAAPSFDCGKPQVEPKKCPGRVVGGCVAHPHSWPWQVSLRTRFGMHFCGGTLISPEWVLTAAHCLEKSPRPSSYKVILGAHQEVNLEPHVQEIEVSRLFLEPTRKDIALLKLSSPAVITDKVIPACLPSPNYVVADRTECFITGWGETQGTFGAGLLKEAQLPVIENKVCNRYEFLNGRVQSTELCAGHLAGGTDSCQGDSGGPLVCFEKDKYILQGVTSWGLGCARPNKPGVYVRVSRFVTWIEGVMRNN

Substance: mini-Pg, a K5 containing plasminogen fragment (from UniProt P00747 462-810) (ligand)
- binding [1]: binds
- binding [2]: binds

From patent publication US20040096444A1 (DUKE UNIVERSITY, published 2004)
